Source: US12534531
Results are given in words; binding and its absence hold for the method and conditions named. Some results given as binding are weak or reduced against the parent protein; the word gives no strength.

Chains of the proteins cited; added tags and fusions are not shown. Lines headed by an entry give the natural chain unless they say otherwise; changes in a name come on top.
UniProt Q15116: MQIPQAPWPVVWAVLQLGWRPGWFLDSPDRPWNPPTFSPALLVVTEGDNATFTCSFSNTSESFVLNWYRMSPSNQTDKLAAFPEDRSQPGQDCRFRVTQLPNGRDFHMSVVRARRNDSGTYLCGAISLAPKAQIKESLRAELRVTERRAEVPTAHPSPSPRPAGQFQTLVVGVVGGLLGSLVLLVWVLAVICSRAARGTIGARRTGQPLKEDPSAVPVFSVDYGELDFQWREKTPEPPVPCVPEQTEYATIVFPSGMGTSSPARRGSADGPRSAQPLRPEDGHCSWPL

Columns and labels:
[1] = target: human PD-1 expressed on the surface of cells (NSO cells expressing human PD-1; MNFAT-luc2/PD-1 Jurkat cells) (human) (UniProt Q15116); assay: FACS saturation binding to NSO cells expressing human PD-1
[2] = target: human PD-1 expressed on the surface of cells (NSO cells expressing human PD-1; MNFAT-luc2/PD-1 Jurkat cells) (human) (UniProt Q15116); assay: FACS blocking on NSO cells expressing human PD-1, 1:4 dilutions, MFI; blocked ligand: biotinylated sPD-L1, streptavidin-PE
[3] = target: human PD-1 expressed on the surface of cells (NSO cells expressing human PD-1; MNFAT-luc2/PD-1 Jurkat cells) (human) (UniProt Q15116); assay: FACS blocking on NSO cells expressing human PD-1, 1:4 dilutions, MFI; blocked ligand: biotinylated sPD-L2, streptavidin-PE
[4] = target: human PD-1 expressed on the surface of cells (NSO cells expressing human PD-1; MNFAT-luc2/PD-1 Jurkat cells) (human) (UniProt Q15116); assay: FACS saturation binding on NSO cells expressing human PD-1, goat anti-human-APC, MFI, 1:4 dilutions

Measured: binding

B1: hPD-1 mAb 15 IgG1 (AA) (antibody, V domains shown)
VH: EVQLVESGGGLVRPGGSLRLSCAASGFTFSSYLISWVRQAPGKGLEWVAAISGGGADTYYADSVKGRFTISRDNAKNSLYLQMNSLRAEDTATYYCARRGTYAMDYWGQGTLVTVSS
VL: DIQMTQSPSSLSASVGDRVTITCLASQTIGTWLAWYQQKPGKAPKLLIYAATSLADGVPSRFSGSGSGTDFTFTISSLQPEDFATYYCQQLYSIPWTFGQGTKLEIKR
binds: all assays above

B2: hPD-1 mAb 2 IgG1 (AA) (antibody, V domains shown)
VH: EVQLVESGGGLVQPGGSLRLSCAASGFVFSSFGMHWVRQAPGKGLEWVAYISSGSMSISYADTVKGRFTISRDNAKNTLYLQMNSLRTEDTALYYCASLSDYFDYWGQGTTVTVSS
VL: DVVMTQSPLSLPVTLGQPASISCRSSQSLVHSTGNTYLHWYLQKPGQSPQLLIYRVSNRFSGVPDRFSGSGSGTDFTLKISRVEAEDVGVYYCSQTTHVPWTFGQGTKLEIKR
binds: all assays above
